# Measured values taken from PubChem BioAssay AID504834 (National Center for Advancing Translational Sciences (NCATS), 2011).
# In all, about 320,000 compounds went through this assay and about 22,000 (6.9%) were called active. The shares of active, inactive and inconclusive entries below differ from those in the screen. Calls come from the whole dose curve; as a rule, active = well fitted inhibition curve with a large enough effect; inconclusive = small, poorly fitted or top-dose-only effect, or another doubt; inactive = no such curve, though single readings can be large or run the other way. Where the call is inconclusive, the potency comes from a doubtful curve fit.
# Test: Primary qHTS for delayed death inhibitors of the malarial parasite plastid, 96 hour incubation
# Settings: P. falciparum luciferase reporter growth; series mostly up to 28.7 µM; activity change, negative = inhibition: at the top concentration
# How it was run: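 Plates of compound plus infected erythrocytes (2% hematocrit, 0.05% parasitemia final) incubate 96 hours, 37 C, 5% CO2. Detection reagent added; reduced luminescence from the parasites' luciferase reporter flags inhibition.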
# % is set by controls: 0 for no effect and ±100 for the full control effect; potency is the fitted concentration of half-maximal effect.
Compound,Potency,"activity change, negative = inhibition"
Cc1cc(F)ccc1S(=O)(=O)N1CCCOC1CNC(=O)C(=O)NCc1ccncc1 (stereo unspecified),"inconclusive: 18.5 µM [inhibitor, single point]",
C=CCNc1cnn(-c2ccc(C)cc2)c(=O)c1Sc1ccc(C)cc1,"inconclusive: 1.04 µM [inhibitor, partial curve, poor fit]",
Cn1c(CCN2CCCCC2)nc2cc(NC(=O)COc3ccc([N+](=O)[O-])cc3)ccc21,"inconclusive: 14.7 µM [inhibitor, single point]",
COc1cccc(C(=O)Nc2nnc(S(=O)(=O)N3CCOCC3)s2)c1,"inconclusive: 13.1 µM [inhibitor, single point]",
Cc1sc(NC(=O)c2ccco2)c(C(c2ccc(F)cc2)N2CCN(C)CC2)c1C (stereo unspecified),"inconclusive: 4.15 µM [inhibitor, partial curve, poor fit]",
CC(=O)Nc1ccc(S(=O)(=O)/N=C2\C(=O)c3ccccc3C([O-])=C2n2cc[n+](-c3ccccn3)c2)cc1,active: 4.65 µM,
Cc1ccc(NC(=S)N(CCN2CCOCC2)Cc2ccccc2F)cc1Cl,"inconclusive: 11.7 µM [inhibitor, single point]",
O=C(c1cccc(NS(=O)(=O)c2ccc(Br)cc2)c1)N1CCN(c2ccccc2O)CC1,"inconclusive: 10.4 µM [inhibitor, single point]",
O=S(=O)(c1ccc(F)cc1)N1CCN(CC2CC3C=CC2C3)CC1 (stereo unspecified),"inconclusive: 0.0928 µM [inhibitor, full curve, poor fit]",
O=C(NCc1ccccc1)N1CCNCC1,"inconclusive: 9.28 µM [inhibitor, single point]",
COc1ccc(OCc2cc(C(=O)N3CCN(CC(=O)N(C)C)CC3)no2)c(Cl)c1,"inconclusive: 5.22 µM [inhibitor, partial curve]",
O=C(CN1C(=O)C2C3C=CC(C4CC34)C2C1=O)OCC(=O)c1ccccc1 (stereo unspecified),"inconclusive: 18.5 µM [inhibitor, single point]",
CN1C(=O)/C(=C/c2cccc(Cl)c2)Sc2ccc(C(=O)NCc3cccnc3)cc21,"inconclusive: 0.0415 µM [inhibitor, full curve, poor fit]",
Cc1ccc(-c2noc(C3CCN(S(=O)(=O)c4ccc5c(c4)OCCO5)CC3)n2)o1,"inconclusive: 11.7 µM [inhibitor, partial curve]",
Cc1cc(NC(=O)COC(=O)c2c(C)nn(Cc3ccccc3)c2C)no1,"inconclusive: 0.0522 µM [inhibitor, full curve, poor fit]",
Cc1ccc(NC(=O)NCCCN2CCCC2=O)c(C)c1,"inconclusive: 10.4 µM [inhibitor, single point]",
CCc1cccc(CC)c1NC(=O)CO/N=C(\C)c1cccs1,,inactive: 0%
Cc1cc(=O)[nH]c(-n2nc(C)cc2C)n1,"inconclusive: 6.57 µM [inhibitor, partial curve, poor fit]",
COc1ccc(CNC(=O)C2CCCN(C(=O)Nc3ccccc3OC)C2)cc1 (stereo unspecified),,inactive: -8.02%
O=C(/C=C/c1ccc2c(c1)OCO2)Nc1cccnc1,,inactive: -19.1%
CC(=O)NC1CC(C)(C)N(OC(C)=O)C(C)(C)C1,"inconclusive: 5.86 µM [inhibitor, partial curve, poor fit]",
NC(N)=NCC(O)CN(c1ccccc1)c1ccccc1 (stereo unspecified),active: 1.47 µM,

Compound,Potency,"activity change, negative = inhibition"
CCOC(=O)COc1cc(OCC(=O)OCC)c2c(=O)cc(-c3ccccc3)oc2c1,"inconclusive: 6.57 µM [inhibitor, partial curve, poor fit]",
Cc1cc(NC(=O)CSc2nc(=O)cc(N)n2-c2ccc(F)cc2)no1,,inactive: -15.9%
CCC(=O)Oc1ccc(C2N(C(=O)CC)CCN2S(=O)(=O)c2ccc(C)cc2)cc1OC (stereo unspecified),"inconclusive: 4.15 µM [inhibitor, partial curve, poor fit]",
Cc1noc(C)c1S(=O)(=O)N1CCC(C(=O)N2CCN(c3ccccc3Cl)CC2)CC1,"inconclusive: 13.1 µM [inhibitor, single point]",
CC[C@]12CCCN3CCc4c(n(c5ccccc45)[C@](O)(C(=O)OC)C1)[C@@H]32,,inactive: 1.59%
S=C(NCCc1ccccc1)N1CCN(Cc2ccccc2)CC1,,inactive: -20.8%
CC1CN(CC(O)COc2ccc(C(C)C)cc2)CC(C)O1 (stereo unspecified),,inactive: -14.7%
CSCC[C@@H](C(=O)NCCCCCCCCCCC(=O)N1CCN(C(=O)OC(C)(C)C)CC1)n1cc(CCO)nn1,active: 1.85 µM,
O=C(O)Cc1ccc(NC(=S)NCc2ccco2)cc1,"inconclusive: 18.5 µM [inhibitor, single point]",
CCn1c(N)c(C(=O)NCCCOC)sc1=S,"inconclusive: 0.262 µM [inhibitor, full curve, poor fit]",
O=C(Nc1ccccc1)OCCOc1cccc(Br)c1,"inconclusive: 18.5 µM [inhibitor, single point]",
COc1ccc(/C=C2/C(=O)N=C3SCCN32)cc1,"inconclusive: 8.28 µM [inhibitor, partial curve, poor fit]",
COc1ccc(N(CC(=O)NCc2ccco2)C(=O)CCC(=O)Nc2ccccn2)cc1,"inconclusive: 6.57 µM [inhibitor, partial curve, poor fit]",
CC(C)CCNC(=O)C1CC(=O)N(CCc2ccccc2)C1 (stereo unspecified),,inactive: 27.8%
COCCN(CCOC)C(=O)CCn1c(=O)oc2ccccc21,active: 1.17 µM,
O=C(CNC(=O)c1cccs1)NCCN1CCC(Cc2ccccc2)CC1,"inconclusive: 1.85 µM [inhibitor, partial curve, poor fit]",
CC/C(=N\O)c1ccc(O)c(OC)c1,"inconclusive: 13.5 µM [inhibitor, single point]",
Cc1nn(-c2ccccc2)c(C)c1CN(C)C(=O)c1ccc(S(=O)(=O)NCc2ccco2)cc1,"inconclusive: 10.4 µM [inhibitor, single point]",
COc1ccc(S(=O)(=O)N(C)CC(=O)NCCc2ccccc2)cc1OC,active: 14.7 µM,
CC(=O)N1CCC(N(CCN2CCOCC2)C(=S)Nc2cc(C)cc(C)c2)CC1,"inconclusive: 0.104 µM [inhibitor, partial curve, poor fit]",
O=C(COc1ccc2cc(Br)ccc2c1)N1CCCC1,"inconclusive: 1.65 µM [inhibitor, full curve, poor fit]",
O=S(=O)(O)NC1CCCCC1,,inactive: -28.4%

Compound,Potency,"activity change, negative = inhibition"
NC(=O)CC(NC(=O)Cc1ccc(Cl)cc1)c1ccc(NCCOc2ccccc2)c([N+](=O)[O-])c1 (stereo unspecified),"inconclusive: 0.828 µM [inhibitor, full curve, poor fit]",
Cc1ccc2[nH]c3c(=O)n(CC(=O)N4CC(C)CC(C)C4)ncc3c2c1 (stereo unspecified),,inactive: -1.2%
S=C(NCCN(C1CCCCC1)C1CCCC1)Nc1cccc(Cl)c1,,inactive: -2.27%
O=C(O)c1cc(S(=O)(=O)N2CCN(C(c3ccccc3)c3ccccc3)CC2)ccc1Cl,active: 9.28 µM,
N#Cc1cc2c(nc1SCc1ccccc1)CCCCC2,"inconclusive: 3.29 µM [inhibitor, single point]",
COC(=O)c1ccc(Cn2nc(-c3ccc(C)c(C)c3)ccc2=O)cc1,"inconclusive: 8.28 µM [inhibitor, partial curve, poor fit]",
CC(C)(C)NC(=O)c1cccc(NC(=O)Cc2ccc(Br)cc2)c1,"inconclusive: 14.7 µM [inhibitor, partial curve]",
CN(C)S(=O)(=O)c1cccc(C(=O)Nc2cc3c(cc2C(=O)O)OCCCO3)c1,,inactive: 28.3%
CCOC(=O)C(C)(C)N(Cc1cccc(C)c1)S(=O)(=O)c1ccc(Cl)c([N+](=O)[O-])c1,"inconclusive: 13.1 µM [inhibitor, partial curve, poor fit]",
CC(C)Oc1cccc(C(=O)NC(=S)Nc2ccc(Cl)c(C(=O)O)c2)c1,"inconclusive: 0.0131 µM [inhibitor, full curve, poor fit]",
COc1cc(/C=C/C(=O)N2CCN(Cc3ccccc3)CC2)cc(OC)c1OC,"inconclusive: 4.65 µM [inhibitor, partial curve, poor fit]",
Cc1cc(C)n(-c2nc(NCCO)c3c4c(sc3n2)CCCC4)n1,,inactive: -8.38%
Cc1cc(/C=C(/C#N)c2cccc(Cl)c2)c(C)n1C,"inconclusive: 0.465 µM [inhibitor, partial curve, poor fit]",
Cc1cc(-c2ccc(N=Nc3c(S(=O)(=O)O)cc4cc(S(=O)(=O)O)cc(N)c4c3O)c(C)c2)ccc1N=Nc1c(S(=O)(=O)O)cc2cc(S(=O)(=O)O)cc(N)c2c1O,active: 9.53 µM,
CN(CCOc1ccccc1)C(=O)c1ccc(Cl)c(S(=O)(=O)N2CCCCC2)c1,"inconclusive: 18.5 µM [inhibitor, single point]",
Cc1cnc(C(=O)OC(C(=O)Nc2cc(C(F)(F)F)ccc2Cl)c2ccccc2)cn1 (stereo unspecified),active: 10.4 µM,
CSc1ccccc1OCc1cc(C(=O)N2C[C@H]3CC[C@H]2C3)no1,,inactive: -4.64%
NCCc1nc(-c2ccccc2)cs1,active: 13.1 µM,
COc1ccc(OC)c(NC(=O)CSc2nc(=O)n(CCN3CCOCC3)c3c2CCCC3)c1,"inconclusive: 9.28 µM [inhibitor, partial curve]",
COc1cc(C(=O)Nc2nc(-c3cc(C)ccc3C)c(C)s2)ccc1OCC(=O)Nc1ccc(F)cc1,"inconclusive: 18.5 µM [inhibitor, single point]",
COc1ccc(C(=O)Nc2ccc(N3CCOCC3)cc2)cc1S(=O)(=O)N1CCCC1,,inactive: -14.4%
Cc1ccc(S(=O)(=O)N(C)c2ccc3c(ncn3C)c2[N+](=O)[O-])cc1,"inconclusive: 14.7 µM [inhibitor, single point]",

# A second format for some results above.
Compound	Potency	activity change, negative = inhibition
NC(=O)CC(NC(=O)Cc1ccc(Cl)cc1)c1ccc(NCCOc2ccccc2)c([N+](=O)[O-])c1 (stereo unspecified)	inconclusive: 0.828 µM [inhibitor, full curve, poor fit]	
COc1cc(/C=C/C(=O)N2CCN(Cc3ccccc3)CC2)cc(OC)c1OC	inconclusive: 4.65 µM [inhibitor, partial curve, poor fit]	
Cc1cc(/C=C(/C#N)c2cccc(Cl)c2)c(C)n1C	inconclusive: 0.465 µM [inhibitor, partial curve, poor fit]	
Cc1ccc(S(=O)(=O)N(C)c2ccc3c(ncn3C)c2[N+](=O)[O-])cc1	inconclusive: 14.7 µM [inhibitor, single point]	
